Publication PMC6181440
These are yes or no findings as the source states them, for the method shown. In cells and extracts the contact can be indirect. A yes stands for co-enrichment or nearness to the bait. Other partners may have been found.

Amino acid sequences for entries named in this document (tags omitted). A change or cut given only in a name is not applied to a line headed by its entry.
UniProt Q38C87: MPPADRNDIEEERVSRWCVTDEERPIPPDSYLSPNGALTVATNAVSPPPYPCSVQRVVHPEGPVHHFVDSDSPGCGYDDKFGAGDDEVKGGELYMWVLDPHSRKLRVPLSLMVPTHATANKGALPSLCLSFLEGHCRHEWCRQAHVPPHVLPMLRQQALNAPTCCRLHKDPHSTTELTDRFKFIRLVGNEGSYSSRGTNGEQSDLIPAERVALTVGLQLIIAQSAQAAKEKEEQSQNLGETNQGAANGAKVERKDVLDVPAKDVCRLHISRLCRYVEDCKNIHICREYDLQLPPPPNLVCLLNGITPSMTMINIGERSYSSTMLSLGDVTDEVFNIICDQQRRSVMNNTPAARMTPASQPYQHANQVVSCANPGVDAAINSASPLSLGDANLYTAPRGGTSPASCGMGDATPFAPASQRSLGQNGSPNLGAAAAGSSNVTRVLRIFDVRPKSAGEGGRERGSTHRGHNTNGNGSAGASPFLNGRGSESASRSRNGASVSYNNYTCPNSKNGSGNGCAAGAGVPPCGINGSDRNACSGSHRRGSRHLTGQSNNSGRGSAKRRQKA
UniProt Q581A2: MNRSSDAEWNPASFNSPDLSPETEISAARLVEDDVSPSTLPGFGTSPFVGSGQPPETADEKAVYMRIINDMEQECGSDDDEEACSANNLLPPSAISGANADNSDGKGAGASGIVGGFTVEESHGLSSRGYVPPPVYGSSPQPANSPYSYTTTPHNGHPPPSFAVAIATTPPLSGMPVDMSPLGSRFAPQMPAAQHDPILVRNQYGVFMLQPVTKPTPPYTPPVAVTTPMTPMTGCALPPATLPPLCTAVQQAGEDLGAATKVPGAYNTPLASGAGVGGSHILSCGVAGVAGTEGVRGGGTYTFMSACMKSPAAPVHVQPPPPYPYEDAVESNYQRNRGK

Target: TAP-ZC3H30 (Trypanosoma brucei) (UniProt Q38C87)
Assay: affinity purification with mass spectrometry; tandem affinity purification of TAP-ZC3H30 from about 10^10 procyclic-form trypanosomes; three purifications with 200 ug/mL RNase A in lysis and wash buffers, three without; eluates analysed by tandem mass spectrometry

“protein encoded by Tb927.8.3820 (from UniProt Q581A2)” was tested, and the binding was “binds”.
